Some entries share one result that the patent states for a list of compounds. At least one structure is not confirmed: it was looked up by name or label, or the drawing left a doubt.
tested on: P. berghei blood stages; test: Plasmodium berghei in vitro drug luminescence (ITDL) assay; type: cell-based; conditions: initial testing, 10 μM
Experimental: The compounds were received as 10 mM stocks dissolved in 100% DMSO. These stocks were stored at −20° C. The DMSO stock compounds were diluted in complete culture medium (RPMI1640 medium supplemented with 20% FBS from Gibco® heat-inactivated and Neomycin stock solution of 10,000 IU/mL from Sigma-Aldrich®) for use in the Plasmodium berghei in vitro drug luminescence assay. For initial testing, the compounds were used at the following concentration: 0.01 μM, 0.1 μM, 1 μM and 10 μM; in triplicate point to determine the inhibition curve for each compound.
This assay measures the in vitro development of P. berghei ring stage into mature schizonts in the presence of inhibitors/drugs. The Swiss-CD1 female mice were infected with the GFP-luc parasite line. The GFP-luc parasite line allows determination of the luciferase activity in the cultured mature schizonts, which is directly proportional to the number of schizonts. When the parasitemia reaches 1-3%, the RBCs were collected from the infected mice and used to perform the assay. The susceptibility of blood stages parasites was determined in the presence of standard GST inhibitors and the TCAMS compounds identified from the VLS. […] The standard GST inhibitors were weighed and dissolved in 100% DMSO to prepare the stock solution. Dilutions of the standard GST inhibitors were freshly prepared in complete culture medium (RPMI1640 medium supplemented with 20% FBS from Gibco® heat-inactivated and Neomycin stock solution of 10,000 IU/mL from Sigma-Aldrich®) for each assay. The dilutions of the inhibitors were added to the wells in triplicates, 50 μL per well. Chloroquine diphosphate salt from Sigma-Aldrich® was used as a control (at a concentration of 100 nM) for complete inhibition of blood stage development. Further, infected blood was collected from one mouse by cardiac puncture under anesthesia early in the morning (between 9:00-10:[…]). The blood was added to a 50 mL tube containing 5 mL complete culture medium supplemented with 300 μL heparin stock solution (25,000 U/mL). The blood was centrifuged for 8 min at 450×g and the supernatant was removed. The blood was resuspended in a complete culture medium comprising a concentration of 2% (v/v). In the next step, 50 μL of the blood suspension was added in each well containing the inhibitors dilutions. The 96-well black culture plates containing the infected blood solution were placed into a candle jar. The candle jar was carefully flushed with a gas mixture of 5% CO2, 5% O2, 90% N2 using a 0.22 μm filter unit connected to the gas hose for 2 minutes. The lid was tightly closed immediately after gassing. The infected blood suspension was incubated at 37° C. with continuous agitation (enough to keep the cells suspended) for 24 hours allowing the ring stages to develop into the mature schizonts. After the culture period, the schizonts were evaluated by microscopic examination of Diff Quick-stained thin blood smears. The 96-well plate was centrifuged at 1,000×g for 5 minutes. The supernatant was removed using a syringe needle on those sides of the wells without red blood cell after spinning. The luciferase activity was measured in cultured mature schizonts using the Luciferase Assay System Kit from Promega (Cat. No. E1500). The RBCs were lysed by adding 50 μL of 1× cell culture lysis reagent into each well. The plate was shaken for 5 minutes to assure complete lysis. Afterward, 50 μL of the luciferase assay reagent was added. The luminescence was measured using the SpectraMax® M3 Microplate Reader (Molecular Devices). […] The data was analyzed and used to generate standard in vitro inhibition curves, and EC50 values of each compound were calculated. Preliminary data analyses were performed using Microsoft Excel and the effective concentration (50% of the maximal inhibition; EC50 values) were calculated using GraphPad Prism software (Graph-Pad software, Inc., US, Mac Version 6).

Q: How did the parasite growth inhibition turn out when `COc1ccc2nccc([C@@H](O)CN3CCC(NC(=O)c4cc5c(F)cc(F)cc5[nH]4)CC3)c2n1` [Compound 6] was run?
A: more than 50%

Q: `c1ccc2[nH]c(CN(Cc3nc4ccccc4[nH]3)Cc3nc4ccccc4[nH]3)nc2c1` [Compound 8] was tested. Which parasite growth inhibition did it give?
A: more than 50%

Q: Which parasite growth inhibition does the source give for `Oc1ccc(CCNc2nc(NCc3ccccc3-c3ccc(C(F)(F)F)cc3)nc(N3CCNCC3)n2)cc1` [Compound 12] here?
A: more than 50%

Q: How did the parasite growth inhibition turn out when `NC(=O)c1cccc(C(=O)Nc2ccc(-c3cccc(-c4nc5cc(F)ccc5[nH]4)c3)cc2)c1` [Compound 14] was run?
A: more than 50%

Q: With `NC(=O)c1cccc(C(=O)Nc2cccc(-c3cccc(-c4nc5cc(F)ccc5[nH]4)c3)c2)c1` [Compound 16] as the compound, how does the parasite growth inhibition read?
A: more than 50%

Q: Which parasite growth inhibition does the source give for `O=C1Nc2cccc3c2C1(CCCCN1CCC(c2cc4ccncc4[nH]2)CC1)CCC3` (stereo not drawn) [TCMDC-141151/TCMDC-141221] here?
A: more than 50%

— patent US10744119B1, “Inhibitors of the malarial GST” (University of Puerto Rico, priority 2014, dated 2020)
